The other results are listed elsewhere or left out.
Experiments:
Experiment in all cases: log2 fold change, soluble protein after heating vs DMSO (PISA); higher = thermal stabilisation; K562 lysate, 10 uM; active = over 0.2 and 3.5 SD of the protein, either way, in both replicates (recomputed)
[1] = compound: C1=CC=C(C=C1)[C@H](COC2=CC3=C(C=C2)NC(=O)N3)NC(=O)C4=CC=CN(C4=O)CC5=CC(=C(C=C5)F)F
Procedure, shortened: (§1)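 A 30 min treatment with 10 μM compound was applied to crude K562 extract at 1 mg/mL protein in PBS pH 7.4 with 1 mM MgCl2. Heating for 3 min spanned 48°C-58°C, after which aliquots were pooled, adjusted to 0.5% NP-40 at 4°C and spun at 21,000xg for 90 min. TMTpro 16plex LC-MS/MS of the supernatant, with channel sums equalised, gave values recorded as log-two fold change in thermal stability against solvent controls, from duplicates.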

Protein sequences, listed by entry. Tags and fused reporters are not part of them. Lines headed by an entry give the natural chain unless they say otherwise; changes in a name come on top.
UniProt O43399: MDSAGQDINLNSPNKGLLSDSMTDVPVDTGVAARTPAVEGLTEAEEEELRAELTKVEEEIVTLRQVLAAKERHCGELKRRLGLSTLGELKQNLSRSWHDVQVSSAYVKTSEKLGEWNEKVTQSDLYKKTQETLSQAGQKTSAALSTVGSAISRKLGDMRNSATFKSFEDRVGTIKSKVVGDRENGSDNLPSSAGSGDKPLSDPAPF
UniProt Q9H0R3: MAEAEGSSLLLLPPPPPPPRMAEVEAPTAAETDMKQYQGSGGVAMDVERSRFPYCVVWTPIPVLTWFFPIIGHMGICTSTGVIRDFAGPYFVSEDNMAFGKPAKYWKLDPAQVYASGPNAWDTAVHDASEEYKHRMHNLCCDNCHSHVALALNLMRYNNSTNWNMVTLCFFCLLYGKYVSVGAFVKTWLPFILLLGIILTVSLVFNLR
UniProt Q13641: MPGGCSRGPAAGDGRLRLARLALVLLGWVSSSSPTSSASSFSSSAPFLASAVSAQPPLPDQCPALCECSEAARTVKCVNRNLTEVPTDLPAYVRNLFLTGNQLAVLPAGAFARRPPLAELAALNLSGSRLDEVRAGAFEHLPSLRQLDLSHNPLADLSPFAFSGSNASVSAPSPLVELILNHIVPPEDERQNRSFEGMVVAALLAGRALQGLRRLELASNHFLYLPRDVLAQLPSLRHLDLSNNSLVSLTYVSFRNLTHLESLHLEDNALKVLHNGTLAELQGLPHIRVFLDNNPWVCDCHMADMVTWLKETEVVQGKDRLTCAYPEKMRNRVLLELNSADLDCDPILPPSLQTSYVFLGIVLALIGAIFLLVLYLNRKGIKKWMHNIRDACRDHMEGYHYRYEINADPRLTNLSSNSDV
UniProt Q0VDI3: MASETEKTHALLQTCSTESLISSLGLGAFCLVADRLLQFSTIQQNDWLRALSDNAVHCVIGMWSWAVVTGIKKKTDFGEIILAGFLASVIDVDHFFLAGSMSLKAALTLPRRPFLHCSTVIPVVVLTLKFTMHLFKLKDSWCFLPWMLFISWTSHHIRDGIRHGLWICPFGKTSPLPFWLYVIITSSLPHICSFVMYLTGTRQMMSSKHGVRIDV
UniProt P06753, whole entry, looked up: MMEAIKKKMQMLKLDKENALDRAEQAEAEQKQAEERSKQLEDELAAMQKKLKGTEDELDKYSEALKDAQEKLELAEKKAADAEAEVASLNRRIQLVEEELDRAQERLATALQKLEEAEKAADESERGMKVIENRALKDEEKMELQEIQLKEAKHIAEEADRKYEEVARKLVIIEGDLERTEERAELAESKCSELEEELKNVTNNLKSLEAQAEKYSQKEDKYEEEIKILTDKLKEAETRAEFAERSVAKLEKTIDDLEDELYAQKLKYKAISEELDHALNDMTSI
UniProt Q96HH6: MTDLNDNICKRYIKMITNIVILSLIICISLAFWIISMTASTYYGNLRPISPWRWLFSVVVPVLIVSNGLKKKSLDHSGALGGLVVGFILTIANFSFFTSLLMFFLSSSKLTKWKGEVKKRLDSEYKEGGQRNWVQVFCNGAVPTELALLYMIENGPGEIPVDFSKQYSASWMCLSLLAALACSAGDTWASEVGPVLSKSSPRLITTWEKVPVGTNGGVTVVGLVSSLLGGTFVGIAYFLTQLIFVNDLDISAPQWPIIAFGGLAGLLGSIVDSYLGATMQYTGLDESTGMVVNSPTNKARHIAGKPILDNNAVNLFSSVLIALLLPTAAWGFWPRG

[2] = compound: CC1=C(SC2=C1C(=N[C@H](C3=NN=C(N32)C)CC(=O)N)C4=CC=C(C=C4)Cl)C
Procedure, shortened: as §1

[3] = compound: c1ccc([C@@H]2C[C@H]2NC2CCNCC2)cc1
Procedure, shortened: as §1

[4] = compound: CC1=C2C(=CC=C1)N=C(N(C2=O)C3=CC=CC=C3C)CN4C=NC5=C(N=CN=C54)N
Procedure, shortened: as §1

[5] = compound: Cc1sc2c(c1C)C(c1ccc(Cl)cc1)=N[C@@H](CC(=O)OC(C)(C)C)c1nnc(C)n1-2
Procedure, shortened: as §1

| Target | log2 fold change [1] | log2 fold change [2] | log2 fold change [3] | log2 fold change [4] | log2 fold change [5] |
| --- | --- | --- | --- | --- | --- |
| TPD52L2 isoform 3 (UniProt O43399) | inactive: -0.058 | inactive: 0.135 | inactive: 0.098 | – | – |
| TPRG1L (UniProt Q5T0D9) | – | – | inactive: 0.113 | inactive: 0.106 | inactive: 0.041 |
| TMEM222 (UniProt Q9H0R3) | inactive: 0.197 | inactive: 0.13 | – | – | inactive: -0.204 |
| TNNC1 (UniProt P63316) | inactive: -1.67 | inactive: 1.45 | inactive: 1.68 | – | – |
| TPBG (UniProt Q13641) | – | – | – | inactive: 0.046 | inactive: -0.278 |
| TMEM267 (UniProt Q0VDI3) | inactive: 0.007 | inactive: -0.103 | inactive: 0.045 | – | – |
| TPM3 isoform 3 (UniProt P06753) | – | – | inactive: -0.266 | inactive: -0.048 | inactive: -0.041 |
| TMEM19 (UniProt Q96HH6) | – | – | – | inactive: -0.128 | – |

— the supplement of paper PMC10849652
